Consider one substance from article PMC10905933.

The chains behind the UniProt entries cited, without tags or fusion partners.
UniProt Q92793: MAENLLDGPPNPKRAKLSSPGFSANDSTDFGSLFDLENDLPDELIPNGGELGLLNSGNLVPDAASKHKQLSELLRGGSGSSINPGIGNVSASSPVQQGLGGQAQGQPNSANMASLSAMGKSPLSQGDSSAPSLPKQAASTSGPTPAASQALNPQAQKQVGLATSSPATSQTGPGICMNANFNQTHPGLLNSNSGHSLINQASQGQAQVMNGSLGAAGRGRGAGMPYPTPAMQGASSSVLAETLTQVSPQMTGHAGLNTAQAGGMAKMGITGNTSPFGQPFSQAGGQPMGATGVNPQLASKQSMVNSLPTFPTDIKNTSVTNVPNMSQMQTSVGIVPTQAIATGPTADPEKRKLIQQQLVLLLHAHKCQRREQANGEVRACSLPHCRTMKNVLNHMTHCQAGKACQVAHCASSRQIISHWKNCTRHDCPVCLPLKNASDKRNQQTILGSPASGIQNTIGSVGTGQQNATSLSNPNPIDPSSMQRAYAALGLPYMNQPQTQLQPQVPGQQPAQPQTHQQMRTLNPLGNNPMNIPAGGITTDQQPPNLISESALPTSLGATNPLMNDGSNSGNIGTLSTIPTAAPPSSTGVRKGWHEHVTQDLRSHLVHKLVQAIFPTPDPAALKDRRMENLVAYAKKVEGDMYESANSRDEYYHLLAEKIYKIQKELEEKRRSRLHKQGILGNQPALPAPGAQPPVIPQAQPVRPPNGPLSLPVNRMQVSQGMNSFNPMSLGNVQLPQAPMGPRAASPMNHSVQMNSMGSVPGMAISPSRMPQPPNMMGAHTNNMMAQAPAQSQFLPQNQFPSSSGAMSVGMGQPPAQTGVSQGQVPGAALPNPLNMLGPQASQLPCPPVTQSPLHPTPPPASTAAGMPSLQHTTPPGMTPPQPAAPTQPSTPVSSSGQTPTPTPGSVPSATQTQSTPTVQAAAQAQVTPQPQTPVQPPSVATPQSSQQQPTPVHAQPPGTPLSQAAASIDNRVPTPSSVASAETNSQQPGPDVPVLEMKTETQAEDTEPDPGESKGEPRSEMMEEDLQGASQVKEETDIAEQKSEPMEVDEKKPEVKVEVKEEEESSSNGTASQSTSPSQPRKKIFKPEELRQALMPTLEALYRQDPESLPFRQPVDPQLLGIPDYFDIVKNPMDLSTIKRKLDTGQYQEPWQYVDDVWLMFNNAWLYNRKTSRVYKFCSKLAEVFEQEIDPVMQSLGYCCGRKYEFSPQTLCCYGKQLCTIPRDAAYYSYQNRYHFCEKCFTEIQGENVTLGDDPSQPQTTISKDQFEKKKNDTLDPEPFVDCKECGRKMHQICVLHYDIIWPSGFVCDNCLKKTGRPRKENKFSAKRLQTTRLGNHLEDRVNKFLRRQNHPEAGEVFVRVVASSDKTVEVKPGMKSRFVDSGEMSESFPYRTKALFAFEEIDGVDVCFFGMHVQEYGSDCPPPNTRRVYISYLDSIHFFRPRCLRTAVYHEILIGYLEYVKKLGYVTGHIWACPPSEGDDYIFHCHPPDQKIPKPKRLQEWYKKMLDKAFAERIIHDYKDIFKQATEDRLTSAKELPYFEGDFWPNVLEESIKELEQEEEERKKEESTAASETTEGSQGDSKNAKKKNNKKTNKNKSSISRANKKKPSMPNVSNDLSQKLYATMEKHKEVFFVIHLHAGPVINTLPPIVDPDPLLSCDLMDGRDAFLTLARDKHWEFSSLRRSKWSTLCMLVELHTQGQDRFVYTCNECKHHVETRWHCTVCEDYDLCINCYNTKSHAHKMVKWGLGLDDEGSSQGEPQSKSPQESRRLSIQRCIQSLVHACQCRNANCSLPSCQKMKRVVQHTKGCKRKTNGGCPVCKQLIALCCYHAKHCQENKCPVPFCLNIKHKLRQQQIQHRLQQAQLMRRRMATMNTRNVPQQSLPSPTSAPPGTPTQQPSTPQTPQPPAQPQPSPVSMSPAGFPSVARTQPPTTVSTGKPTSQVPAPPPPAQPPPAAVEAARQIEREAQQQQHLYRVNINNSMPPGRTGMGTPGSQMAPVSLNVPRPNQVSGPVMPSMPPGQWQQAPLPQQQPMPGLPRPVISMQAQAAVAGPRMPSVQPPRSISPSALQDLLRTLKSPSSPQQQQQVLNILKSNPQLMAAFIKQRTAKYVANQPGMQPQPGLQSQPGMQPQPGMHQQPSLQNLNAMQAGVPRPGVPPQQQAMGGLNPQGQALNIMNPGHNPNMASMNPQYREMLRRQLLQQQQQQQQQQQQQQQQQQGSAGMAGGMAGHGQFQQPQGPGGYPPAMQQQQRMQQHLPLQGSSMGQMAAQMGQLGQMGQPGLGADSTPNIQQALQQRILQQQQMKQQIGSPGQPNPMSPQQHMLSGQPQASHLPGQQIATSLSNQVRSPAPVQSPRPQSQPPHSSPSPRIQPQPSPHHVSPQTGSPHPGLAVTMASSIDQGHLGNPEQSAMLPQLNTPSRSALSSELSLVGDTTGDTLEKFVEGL

No constants are given. Whether binding was seen depends on the method and setting. In cells and extracts the contact can be indirect. Some binding calls cover weakened binding; strength is not graded here.

This assay addresses T1, phosphorylated STAT4 (pSTAT4) (human (endogenous in PC3 and DU145)) (UniProt Q14765).
T1 sequence (chain, phosphorylated (site not printed)): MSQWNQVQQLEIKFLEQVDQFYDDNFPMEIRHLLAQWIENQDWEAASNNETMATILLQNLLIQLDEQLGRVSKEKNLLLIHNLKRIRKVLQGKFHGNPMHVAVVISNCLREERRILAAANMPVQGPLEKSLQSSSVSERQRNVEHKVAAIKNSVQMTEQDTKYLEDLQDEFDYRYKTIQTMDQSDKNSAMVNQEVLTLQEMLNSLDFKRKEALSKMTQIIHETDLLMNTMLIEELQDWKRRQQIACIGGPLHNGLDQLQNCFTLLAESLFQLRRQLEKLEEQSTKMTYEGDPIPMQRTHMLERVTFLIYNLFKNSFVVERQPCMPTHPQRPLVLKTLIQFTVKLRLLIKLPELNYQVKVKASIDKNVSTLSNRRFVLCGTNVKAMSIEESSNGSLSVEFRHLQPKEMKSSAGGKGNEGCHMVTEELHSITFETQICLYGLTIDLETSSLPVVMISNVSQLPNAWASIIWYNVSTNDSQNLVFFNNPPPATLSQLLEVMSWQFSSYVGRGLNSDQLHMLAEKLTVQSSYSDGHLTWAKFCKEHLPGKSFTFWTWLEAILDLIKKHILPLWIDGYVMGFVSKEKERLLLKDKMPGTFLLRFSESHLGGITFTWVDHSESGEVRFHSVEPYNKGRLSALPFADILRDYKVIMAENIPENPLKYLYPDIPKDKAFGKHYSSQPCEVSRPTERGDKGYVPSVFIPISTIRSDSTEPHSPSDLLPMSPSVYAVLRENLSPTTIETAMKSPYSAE
Put plainly: co-IP; coimmunoprecipitation in PC3 and DU145 cells, Western blot, IgG as a control; which protein was precipitated is not told.

Consider “CREB-binding protein (CBP) (from UniProt Q92793 1-2442)”, for which the binding entry is recorded as “binds”.
